# Structures can show the parent of a compound that is named as a salt. The list shows a part of the results. Repeats in this data set agree poorly, so a single value says little.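 Cells: ReNCell VM human fetal ventral-midbrain neural progenitors, differentiated mitogen-free. Blinded raters compared doublecortin-stained (early neurons) or tyrosine hydroxylase-stained (dopaminergic neurons) images with untreated wells, where 0 means no change. After repeats and both raters were averaged, compounds scoring 2 or above became hits for retesting.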
# Legend:
# ReNCell VM [1] = test: neuronal differentiation score (DCX+ cell fraction vs untreated, manual image score) (score (-3 to 3)); higher = more neuronal differentiation; settings: 2 uM, 2 weeks
# ReNCell VM [2] = test: dopaminergic neuron differentiation score (TH+ cell fraction vs untreated, manual image score) (score (0 to 3)); higher = more TH+ dopaminergic neuron differentiation; settings: 2 uM, 4 weeks, BDNF 10 ng/ml + GDNF 10 ng/ml
compound,measurement,setting,value
CCCCC(O)c1ccccc1 (stereo unspecified),neuronal differentiation score,ReNCell VM [1]; library: Spectrum,inactive: 0
same,dopaminergic neuron differentiation score,ReNCell VM [2]; library: Spectrum,inactive: 0
Nc1nc(Cl)nc2c1ncn2[C@@H]1O[C@H](CO)[C@@H](O)[C@H]1O [2-Chloroadenosine],neuronal differentiation score,ReNCell VM [1]; library: LOPAC,inactive: -3
same,dopaminergic neuron differentiation score,ReNCell VM [2]; library: LOPAC,inactive: 0
COc1ccc(CN2CCN(C(c3ccc(F)cc3)c3ccc(F)cc3)CC2)c(OC)c1OC,neuronal differentiation score,ReNCell VM [1]; library: Spectrum,inactive: 0
same,dopaminergic neuron differentiation score,ReNCell VM [2]; library: Spectrum,inactive: 0
C[N+]1(C)CCCC1C(=O)O (stereo unspecified) [Stachydrine hydrochloride],neuronal differentiation score,ReNCell VM [1]; library: Phytochemical,inactive: 0
same,dopaminergic neuron differentiation score,ReNCell VM [2]; library: Phytochemical,inactive: 0
COc1cc(C/C=C/c2ccccc2)c(OC)cc1O,neuronal differentiation score,ReNCell VM [1]; library: Spectrum,inactive: 0
same,dopaminergic neuron differentiation score,ReNCell VM [2]; library: Spectrum,inactive: 0
CC(C)(C)C(=O)OCOC(=O)[C@@H]1N2C(=O)[C@@H](NC(=O)[C@H](N)c3ccccc3)[C@H]2SC1(C)C [Pivampicillin],neuronal differentiation score,ReNCell VM [1]; library: Prestwick,inactive: 0
same,dopaminergic neuron differentiation score,ReNCell VM [2]; library: Prestwick,inactive: 0
NC1(C(=O)O)CC1,neuronal differentiation score,ReNCell VM [1]; library: Spectrum,inactive: 0
same,dopaminergic neuron differentiation score,ReNCell VM [2]; library: Spectrum,inactive: 0
CC1(C)OC(=O)NC1=O,neuronal differentiation score,ReNCell VM [1]; library: Spectrum,inactive: 0
same,dopaminergic neuron differentiation score,ReNCell VM [2]; library: Spectrum,inactive: 0
CCc1cccc2c3c([nH]c12)C(CC)(CC(=O)O)OCC3 (stereo unspecified),neuronal differentiation score,ReNCell VM [1]; library: Spectrum,inactive: 0
same,dopaminergic neuron differentiation score,ReNCell VM [2]; library: Spectrum,inactive: 0
Nc1nc(=S)c2ncn([C@@H]3O[C@H](CO)[C@@H](O)[C@H]3O)c2[nH]1,neuronal differentiation score,ReNCell VM [1]; library: Spectrum,inactive: -1
same,dopaminergic neuron differentiation score,ReNCell VM [2]; library: Spectrum,inactive: 0
CCCCCCCCNC(C)C(O)c1ccc(SC(C)C)cc1 (stereo unspecified),neuronal differentiation score,ReNCell VM [1]; library: Spectrum,inactive: 0
same,dopaminergic neuron differentiation score,ReNCell VM [2]; library: Spectrum,inactive: 0
CC1=C(C(=O)O)N2C(=O)[C@@H](NC(=O)[C@H](N)c3ccccc3)[C@H]2SC1 [Cephalexin hydrate],neuronal differentiation score,ReNCell VM [1]; library: LOPAC,inactive: -1
same,dopaminergic neuron differentiation score,ReNCell VM [2]; library: LOPAC,inactive: 0
"CC(=O)NC1[C@@H](O)OC(CO)[C@@H](O)[C@H]1O[C@H](C)C(=O)O (stereo in doubt) [Muramic acid, N-acetyl]",neuronal differentiation score,ReNCell VM [1]; library: Phytochemical,inactive: 0
same,dopaminergic neuron differentiation score,ReNCell VM [2]; library: Phytochemical,inactive: 0

# Part of the list above, reformatted:
compound	measurement	setting	value
COc1ccc(CN2CCN(C(c3ccc(F)cc3)c3ccc(F)cc3)CC2)c(OC)c1OC	neuronal differentiation score	ReNCell VM [1]; library: Spectrum	inactive: 0
same	dopaminergic neuron differentiation score	ReNCell VM [2]; library: Spectrum	inactive: 0

# Source: the supplement of paper PMC4635364
